Measurements from “University of Dundee, Small-Polar-MMV Screening Library” (2021), ChEMBL document CHEMBL3988442.

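Viability assay of Plasmodium falciparum sporozoites; the read-out is not stated. The concentration is filed as 10 mM, unlikely as a test dose, so the dose is not known. The record gives no direction; compounds that gave an IC50 in retests scored well above the rest, so higher reads as lower viability. Strong results were mostly tested again. Size under these conditions: about 34,000 compounds, about 280 of them at 50% or above in at least one test.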

The filed quantity is “Percent Effect” (%). The controls that fix the scale are not given in the record; negative values are as filed. Compounds were drawn at random from those tested, without regard to their results.

| structure | effect |
|---|---|
| `[H][C@@]12CCN(C)[C@@]1([H])CCN2S(=O)(=O)Cc1ccc(C)cc1` | -7.203 |
| `Cc1ccc(N2CCC(C(O)Cc3ccccc3)CC2)nn1` (configuration not stated) | -8.215 |
| `CCOCCN1CCN(C(C)c2nc(C3CC3)no2)CC1` (configuration not stated) | 5.809 |
| `COc1ccc(C(=O)N2CCCC3(CCCC(=O)N3C)C2)cc1` (configuration not stated) | 3.61 |
| `O=C(O)C(F)(F)F.[H][C@@]12CCN(Cc3ccc4c(c3)OCO4)C[C@]1(C(=O)NC1CC1)CCO2` | 12.13 |
| `[H][C@@]12CCN(Cc3cccc(C)n3)C[C@]1(C(=O)N1CCOCC1)CCO2` | 10.57 |
| `CC(O)CN1CCC(CNCc2ccccc2Br)CC1` (configuration not stated) | 7.89 |
| `CC(Cn1ccnc1)NS(=O)(=O)c1ccc(C#N)c(Cl)c1` (configuration not stated) | -20.34 |
| `[H][C@@]12COC[C@]1(COc1ccc(C#N)cn1)CN(Cc1cnn(C)c1)C2` | -2.9 |
| `CC(=O)N1CCC(c2ccnc(Nc3cnccn3)n2)C1` (configuration not stated) | -13.26 |
| `O=C(c1ccccc1-c1ccccc1)N1CCOC2(CNCCOC2)C1` (configuration not stated) | -18.71 |
| `O=C(NCCCn1cncn1)N1CCC(N2CCCCC2)CC1` | -4.535 |
| `Cc1ccc(CN2CCC3(CC2)OC(C(=O)N(C)C)c2ccccc23)o1.O=C(O)C(F)(F)F` (configuration not stated) | 10.09 |
| `Cc1ccc(CN2CCOC3(COCCN(Cc4ccncc4)C3)C2)o1.O=C(O)C(F)(F)F.O=C(O)C(F)(F)F.O=C(O)C(F)(F)F` (configuration not stated) | -4.948 |
| `CCO[C@@H]1CCN(C(=O)c2ccnnc2)[C@@H]1Cc1cnn(C)c1` | 7.899 |
| `CC(C)(C)c1ncc(C(=O)NCCNC(=O)c2ccco2)s1` | 10.32 |
| `O=C(CN(Cc1ccco1)C1CC1)N1CCCCCC1` | 4.32 |
| `CCOCCNc1nc(C2CCCC2)nc2c1cnn2C` | -11.45 |
| `[H][C@@]12C[C@H](C(=O)Nc3cccnc3)[C@@]([H])(CN(S(=O)(=O)N(C)C)C1)O2` | -12.46 |
| `COCCc1noc(CN2CCCC2Cn2cccn2)n1` (configuration not stated) | 2.602 |
| `O=C(O)C(F)(F)F.[H][C@@]12CCN(CC3CCOCC3)[C@@]1([H])CCN2C(=O)c1ccc(F)cc1` | 1.476 |
| `Cc1cccnc1N1CC2(CCN(Cc3cnn(C)c3)C2)C1.O=C(O)C(F)(F)F.O=C(O)C(F)(F)F` | 2.189 |
| `CN1CCCc2cc(CNC(=O)c3ccc(-n4cnnc4)cc3)ccc21` | 3.663 |
| `CC(Cn1ccnc1)NC(=O)C1(c2ccc(F)cc2)CC1` (configuration not stated) | 6.168 |
| `CCn1nnc2c1C(COCCN(C)C)CN(Cc1ccc(C)s1)C2.O=C(O)C(F)(F)F.O=C(O)C(F)(F)F` (configuration not stated) | 12.89 |
| `O=C1NCCc2c1sc1ccc(C(=O)N3CC[C@H](CO)[C@H](O)C3)cc21` | -11.14 |
| `CC(=O)Nc1nc(C(=O)NCc2ccc(N3CCCC3)nc2)cs1` | 4.374 |

Some entries from above, unchanged:

| structure | effect |
|---|---|
| `[H][C@@]12CCN(C)[C@@]1([H])CCN2S(=O)(=O)Cc1ccc(C)cc1` | -7.203 |
| `[H][C@@]12COC[C@]1(COc1ccc(C#N)cn1)CN(Cc1cnn(C)c1)C2` | -2.9 |
| `O=C(O)C(F)(F)F.[H][C@@]12CCN(CC3CCOCC3)[C@@]1([H])CCN2C(=O)c1ccc(F)cc1` | 1.476 |